This is one part of the list.
Experiments:
Assay in all cases: log2 fold change, soluble protein after heating vs DMSO (PISA); higher = thermal stabilisation; K562 lysate, 10 uM; active = over 0.2 and 3.5 SD of the protein, either way, in both replicates (recomputed)
[1] = compound: NCC(=O)Nc1ccc(-n2nc(C(F)(F)F)cc2-c2ccc3c(ccc4ccccc43)c2)cc1
In short: (§1)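 To prepare the extract, K562 pellets were dounce-homogenised in PBS pH 7.4 with 1 mM MgCl2, giving crude material at 1 mg/mL protein. This was treated with 10 μM compound for 30 min, then heated in aliquots for 3 min over 48°C-58°C before pooling and addition of NP-40 to 0.5% at 4°C. Centrifugation at 21,000xg for 90 min left soluble protein in the supernatant, which TMTpro 16plex LC-MS/MS quantified with equalised channel sums. Results are log-two fold changes in thermal stability compared with solvent controls, from duplicates.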

Sequences of proteins named here, by UniProt entry; tags and fusion partners are left off. A change or cut given only in a name is not applied to a line headed by its entry.
UniProt Q9NPH2: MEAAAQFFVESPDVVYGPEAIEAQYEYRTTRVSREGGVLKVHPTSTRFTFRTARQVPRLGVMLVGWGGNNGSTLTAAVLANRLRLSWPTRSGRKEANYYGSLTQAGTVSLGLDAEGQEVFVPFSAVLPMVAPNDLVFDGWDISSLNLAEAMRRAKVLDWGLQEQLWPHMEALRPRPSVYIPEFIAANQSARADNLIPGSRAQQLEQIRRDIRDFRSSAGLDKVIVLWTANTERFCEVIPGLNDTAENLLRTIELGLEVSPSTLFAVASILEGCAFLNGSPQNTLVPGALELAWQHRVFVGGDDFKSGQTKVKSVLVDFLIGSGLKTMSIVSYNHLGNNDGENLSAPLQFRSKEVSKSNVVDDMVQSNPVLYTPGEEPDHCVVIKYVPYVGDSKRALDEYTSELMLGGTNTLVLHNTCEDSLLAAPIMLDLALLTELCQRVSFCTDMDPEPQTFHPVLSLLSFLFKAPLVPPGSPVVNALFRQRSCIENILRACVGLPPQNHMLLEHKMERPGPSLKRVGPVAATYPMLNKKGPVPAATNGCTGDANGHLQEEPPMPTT
UniProt P18084: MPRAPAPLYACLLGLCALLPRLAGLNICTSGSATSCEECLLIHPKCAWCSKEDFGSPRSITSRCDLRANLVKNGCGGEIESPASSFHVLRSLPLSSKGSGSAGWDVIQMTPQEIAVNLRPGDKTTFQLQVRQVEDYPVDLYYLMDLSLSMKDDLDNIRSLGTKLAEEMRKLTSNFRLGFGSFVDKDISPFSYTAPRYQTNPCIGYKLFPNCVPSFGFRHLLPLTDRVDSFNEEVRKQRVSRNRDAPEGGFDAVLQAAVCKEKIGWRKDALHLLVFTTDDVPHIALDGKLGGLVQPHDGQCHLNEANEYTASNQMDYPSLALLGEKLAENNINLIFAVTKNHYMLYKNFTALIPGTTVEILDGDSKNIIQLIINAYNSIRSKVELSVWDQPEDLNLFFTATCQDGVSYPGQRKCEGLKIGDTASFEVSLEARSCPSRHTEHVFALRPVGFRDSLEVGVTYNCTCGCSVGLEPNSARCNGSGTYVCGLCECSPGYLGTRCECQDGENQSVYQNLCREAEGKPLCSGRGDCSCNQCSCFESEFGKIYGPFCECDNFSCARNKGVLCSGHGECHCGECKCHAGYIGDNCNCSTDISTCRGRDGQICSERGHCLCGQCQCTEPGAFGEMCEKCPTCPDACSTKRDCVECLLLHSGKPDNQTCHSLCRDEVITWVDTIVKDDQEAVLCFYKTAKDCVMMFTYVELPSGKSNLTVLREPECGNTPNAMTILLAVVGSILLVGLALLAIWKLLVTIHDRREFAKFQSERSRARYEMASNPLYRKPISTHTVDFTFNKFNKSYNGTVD
UniProt O75449: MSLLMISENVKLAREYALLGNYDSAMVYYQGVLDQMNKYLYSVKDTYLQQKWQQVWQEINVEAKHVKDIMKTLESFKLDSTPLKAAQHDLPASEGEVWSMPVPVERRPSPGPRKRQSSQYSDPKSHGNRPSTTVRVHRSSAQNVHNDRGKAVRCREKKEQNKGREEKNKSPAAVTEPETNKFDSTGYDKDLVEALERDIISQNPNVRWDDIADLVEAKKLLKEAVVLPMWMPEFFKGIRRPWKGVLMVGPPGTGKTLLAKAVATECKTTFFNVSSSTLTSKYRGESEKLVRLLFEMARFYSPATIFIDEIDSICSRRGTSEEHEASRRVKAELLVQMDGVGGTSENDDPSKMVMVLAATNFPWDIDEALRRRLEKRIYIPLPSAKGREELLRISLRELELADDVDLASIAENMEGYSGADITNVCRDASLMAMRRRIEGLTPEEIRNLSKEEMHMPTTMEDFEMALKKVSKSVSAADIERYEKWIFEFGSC
UniProt O43731: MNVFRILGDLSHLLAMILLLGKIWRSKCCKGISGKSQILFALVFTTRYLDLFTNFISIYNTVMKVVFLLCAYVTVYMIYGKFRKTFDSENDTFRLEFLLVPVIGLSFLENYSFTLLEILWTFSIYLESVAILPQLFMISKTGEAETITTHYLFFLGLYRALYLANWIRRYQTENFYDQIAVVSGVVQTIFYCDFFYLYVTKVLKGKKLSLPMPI
UniProt Q8TEX9: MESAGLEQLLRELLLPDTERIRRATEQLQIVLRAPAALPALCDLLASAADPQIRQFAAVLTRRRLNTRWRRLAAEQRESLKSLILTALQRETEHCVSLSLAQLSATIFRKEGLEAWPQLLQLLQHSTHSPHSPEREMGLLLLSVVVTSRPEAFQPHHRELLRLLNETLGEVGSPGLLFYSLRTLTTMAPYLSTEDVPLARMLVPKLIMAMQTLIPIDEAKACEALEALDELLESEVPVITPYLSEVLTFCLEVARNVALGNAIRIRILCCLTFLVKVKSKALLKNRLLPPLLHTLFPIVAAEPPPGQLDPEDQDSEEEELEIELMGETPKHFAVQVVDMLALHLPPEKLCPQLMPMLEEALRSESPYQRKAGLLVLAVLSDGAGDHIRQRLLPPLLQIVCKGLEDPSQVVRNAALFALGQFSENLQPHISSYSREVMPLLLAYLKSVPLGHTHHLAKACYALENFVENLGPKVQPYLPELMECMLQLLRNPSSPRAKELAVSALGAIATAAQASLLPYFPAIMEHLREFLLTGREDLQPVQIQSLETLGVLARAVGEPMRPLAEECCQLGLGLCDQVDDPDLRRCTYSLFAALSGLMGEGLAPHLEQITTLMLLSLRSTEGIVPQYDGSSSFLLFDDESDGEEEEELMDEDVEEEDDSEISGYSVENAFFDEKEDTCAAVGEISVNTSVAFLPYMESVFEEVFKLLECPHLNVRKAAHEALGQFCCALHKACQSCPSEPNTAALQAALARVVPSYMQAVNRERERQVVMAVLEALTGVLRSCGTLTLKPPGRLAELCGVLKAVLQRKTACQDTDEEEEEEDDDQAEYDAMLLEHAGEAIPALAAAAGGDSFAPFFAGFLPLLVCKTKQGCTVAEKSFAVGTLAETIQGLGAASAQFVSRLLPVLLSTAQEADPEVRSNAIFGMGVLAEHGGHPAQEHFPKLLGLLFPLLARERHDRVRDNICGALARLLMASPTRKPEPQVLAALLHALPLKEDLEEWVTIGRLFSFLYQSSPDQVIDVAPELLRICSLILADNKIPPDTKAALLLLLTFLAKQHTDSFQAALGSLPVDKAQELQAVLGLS
UniProt O00180: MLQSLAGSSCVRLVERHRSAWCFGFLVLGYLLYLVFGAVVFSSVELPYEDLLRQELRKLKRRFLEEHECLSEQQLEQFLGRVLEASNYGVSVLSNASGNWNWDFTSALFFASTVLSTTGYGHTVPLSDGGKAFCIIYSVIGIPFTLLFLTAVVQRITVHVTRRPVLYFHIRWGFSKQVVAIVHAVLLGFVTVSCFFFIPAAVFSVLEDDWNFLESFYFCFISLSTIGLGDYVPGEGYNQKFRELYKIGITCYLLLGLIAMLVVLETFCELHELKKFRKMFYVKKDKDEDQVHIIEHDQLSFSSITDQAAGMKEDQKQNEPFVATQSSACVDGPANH
UniProt Q15046, whole entry, looked up: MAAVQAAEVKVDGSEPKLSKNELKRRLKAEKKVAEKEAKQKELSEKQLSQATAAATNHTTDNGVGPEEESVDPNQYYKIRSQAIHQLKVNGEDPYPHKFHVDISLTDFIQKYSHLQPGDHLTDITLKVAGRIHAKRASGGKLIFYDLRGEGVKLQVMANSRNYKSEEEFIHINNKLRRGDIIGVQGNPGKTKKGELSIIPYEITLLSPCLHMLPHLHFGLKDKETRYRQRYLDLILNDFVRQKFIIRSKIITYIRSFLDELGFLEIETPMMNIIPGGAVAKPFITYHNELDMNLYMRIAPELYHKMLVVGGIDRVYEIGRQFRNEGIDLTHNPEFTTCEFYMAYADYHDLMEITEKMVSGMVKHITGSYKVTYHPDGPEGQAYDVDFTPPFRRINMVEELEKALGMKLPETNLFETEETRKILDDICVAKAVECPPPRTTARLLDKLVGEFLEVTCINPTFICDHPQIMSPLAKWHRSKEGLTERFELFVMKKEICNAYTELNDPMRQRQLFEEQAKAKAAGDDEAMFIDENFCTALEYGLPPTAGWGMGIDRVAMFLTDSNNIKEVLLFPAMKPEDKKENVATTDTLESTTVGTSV
UniProt Q7Z5L9: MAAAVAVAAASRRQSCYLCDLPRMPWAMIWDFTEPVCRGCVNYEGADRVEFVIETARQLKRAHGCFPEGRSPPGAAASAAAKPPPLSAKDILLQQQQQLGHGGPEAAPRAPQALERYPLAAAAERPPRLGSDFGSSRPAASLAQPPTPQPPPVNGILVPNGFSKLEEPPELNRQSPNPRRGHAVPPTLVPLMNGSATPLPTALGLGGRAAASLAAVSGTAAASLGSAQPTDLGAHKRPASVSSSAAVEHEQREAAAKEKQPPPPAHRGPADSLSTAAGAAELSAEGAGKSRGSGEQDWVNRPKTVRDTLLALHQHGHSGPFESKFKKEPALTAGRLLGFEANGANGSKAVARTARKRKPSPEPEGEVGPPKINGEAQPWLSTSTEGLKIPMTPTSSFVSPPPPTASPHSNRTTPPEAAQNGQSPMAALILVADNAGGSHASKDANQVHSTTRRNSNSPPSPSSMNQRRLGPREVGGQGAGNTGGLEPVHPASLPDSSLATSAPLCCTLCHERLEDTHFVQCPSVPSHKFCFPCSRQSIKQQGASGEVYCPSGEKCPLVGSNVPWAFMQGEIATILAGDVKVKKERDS
UniProt Q9BW62: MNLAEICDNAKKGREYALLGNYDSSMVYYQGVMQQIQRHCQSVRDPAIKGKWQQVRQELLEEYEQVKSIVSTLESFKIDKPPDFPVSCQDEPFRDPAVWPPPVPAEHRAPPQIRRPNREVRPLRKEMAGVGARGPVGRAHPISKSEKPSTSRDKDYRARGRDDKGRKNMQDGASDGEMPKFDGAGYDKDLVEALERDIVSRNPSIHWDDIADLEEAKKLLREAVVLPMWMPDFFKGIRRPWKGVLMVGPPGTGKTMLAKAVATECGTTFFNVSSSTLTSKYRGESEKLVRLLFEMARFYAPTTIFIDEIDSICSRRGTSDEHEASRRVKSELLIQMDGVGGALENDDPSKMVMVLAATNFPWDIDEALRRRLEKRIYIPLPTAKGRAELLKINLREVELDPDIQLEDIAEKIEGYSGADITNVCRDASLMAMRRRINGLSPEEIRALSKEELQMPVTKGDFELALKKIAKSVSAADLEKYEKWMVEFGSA
UniProt Q15051: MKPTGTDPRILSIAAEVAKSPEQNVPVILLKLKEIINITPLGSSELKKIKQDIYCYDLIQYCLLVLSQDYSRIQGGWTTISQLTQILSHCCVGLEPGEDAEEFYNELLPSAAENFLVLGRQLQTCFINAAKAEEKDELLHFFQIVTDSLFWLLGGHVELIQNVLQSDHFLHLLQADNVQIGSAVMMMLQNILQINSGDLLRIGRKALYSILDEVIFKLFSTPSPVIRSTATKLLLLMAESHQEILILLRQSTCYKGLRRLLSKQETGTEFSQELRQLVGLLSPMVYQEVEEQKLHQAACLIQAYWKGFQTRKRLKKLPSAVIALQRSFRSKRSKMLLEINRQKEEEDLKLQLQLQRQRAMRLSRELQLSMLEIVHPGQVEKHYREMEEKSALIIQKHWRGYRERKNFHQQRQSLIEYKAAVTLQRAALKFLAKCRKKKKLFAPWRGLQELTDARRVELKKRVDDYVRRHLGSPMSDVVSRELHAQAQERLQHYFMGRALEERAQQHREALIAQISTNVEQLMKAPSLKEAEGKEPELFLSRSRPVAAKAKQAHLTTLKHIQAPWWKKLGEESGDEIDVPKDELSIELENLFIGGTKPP
UniProt Q674X7: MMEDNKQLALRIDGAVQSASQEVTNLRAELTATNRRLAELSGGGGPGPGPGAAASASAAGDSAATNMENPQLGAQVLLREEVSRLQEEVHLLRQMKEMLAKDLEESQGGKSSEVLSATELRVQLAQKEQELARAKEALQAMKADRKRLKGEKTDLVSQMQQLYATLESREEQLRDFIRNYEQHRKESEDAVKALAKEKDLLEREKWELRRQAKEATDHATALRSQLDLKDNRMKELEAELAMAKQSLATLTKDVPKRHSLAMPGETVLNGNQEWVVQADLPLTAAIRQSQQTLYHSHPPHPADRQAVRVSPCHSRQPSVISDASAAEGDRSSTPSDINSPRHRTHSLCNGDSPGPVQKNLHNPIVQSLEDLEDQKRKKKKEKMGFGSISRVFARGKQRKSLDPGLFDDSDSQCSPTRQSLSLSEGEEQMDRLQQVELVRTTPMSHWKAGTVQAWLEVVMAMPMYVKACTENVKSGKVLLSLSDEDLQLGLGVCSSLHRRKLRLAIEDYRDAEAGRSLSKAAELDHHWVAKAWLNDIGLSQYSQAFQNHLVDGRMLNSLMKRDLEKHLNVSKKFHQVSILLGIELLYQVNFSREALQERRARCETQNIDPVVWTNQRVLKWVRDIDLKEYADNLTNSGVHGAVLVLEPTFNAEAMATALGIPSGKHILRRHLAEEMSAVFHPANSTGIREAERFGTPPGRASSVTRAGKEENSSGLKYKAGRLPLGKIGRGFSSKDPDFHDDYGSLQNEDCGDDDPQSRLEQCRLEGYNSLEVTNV

vorinostat = compound: O=C(CCCCCCC(=O)Nc1ccccc1)NO [vorinostat]
In short: as §1

silmitasertib = compound: O=C(O)c1ccc2c(c1)nc(Nc1cccc(Cl)c1)c1ccncc12 [silmitasertib]
In short: as §1

[2] = compound: O=C1NC(=O)C(c2cnc3ccccn23)=C1c1cn2c3c(cc(F)cc13)CN(C(=O)N1CCCCC1)CC2
In short: as §1

entospletinib = compound: c1cn2cc(-c3ccc4cn[nH]c4c3)nc(Nc3ccc(N4CCOCC4)cc3)c2n1 [entospletinib]
In short: as §1

Measured: log2 fold change

IST1 (UniProt P53990)
inactive: [1] -0.002 | vorinostat 0.025 | silmitasertib 0.003 | [2] -0.03 | entospletinib -0.02

ISYNA1 (UniProt Q9NPH2)
inactive: [1] -0.016 | vorinostat 0.162 | silmitasertib -0.008 | [2] -0.015 | entospletinib 0

KAT14 (UniProt Q9H8E8)
inactive: [1] 0.129 | vorinostat -0.233 | silmitasertib 0.093 | entospletinib -0.077

ITGB5 (UniProt P18084)
inactive: [1] 0.024 | vorinostat 0.063 | silmitasertib -0.001 | [2] -0.05 | entospletinib 0.042

IPP (UniProt Q9Y573)
inactive: [1] 0.04 | silmitasertib 0.205 | entospletinib 0.074
active: vorinostat -0.633

KCTD5 (UniProt Q9NXV2)
inactive: [1] -0.016 | vorinostat 0.057 | silmitasertib -0.046 | [2] -0.012 | entospletinib -0.032

IREB2 (UniProt P48200)
inactive: [1] 0.024 | vorinostat -0.114 | silmitasertib 0 | [2] 0.008 | entospletinib 0.006

KATNA1 (UniProt O75449)
inactive: [1] 0.03 | vorinostat -0.17 | silmitasertib 0.048 | [2] 0.003 | entospletinib 0.025

ISG20L2 (UniProt Q9H9L3)
inactive: [1] 0.223 | vorinostat 0.167 | silmitasertib 0.055 | entospletinib 0.132

INTS9 (UniProt Q9NV88)
inactive: [1] -0.016 | vorinostat 0.029 | silmitasertib -0.009 | [2] 0.001 | entospletinib 0.013

ITM2A (UniProt O43736)
inactive: [1] -0.005 | vorinostat 0.065 | silmitasertib 0.058 | entospletinib -0.036

INTS14 (UniProt Q96SY0)
active: vorinostat -0.311
inactive: [1] -0.008 | silmitasertib 0.002 | [2] 0.023 | entospletinib 0.026

Fetched one by one from the entries so far (2):
ISG20L2 (UniProt Q9H9L3)
inactive: [1] 0.223 | vorinostat 0.167 | silmitasertib 0.055 | entospletinib 0.132

INTS9 (UniProt Q9NV88)
inactive: [1] -0.016 | vorinostat 0.029 | silmitasertib -0.009 | [2] 0.001 | entospletinib 0.013

The results go on.

IPO9 (UniProt Q96P70)
inactive: [1] 0.016 | vorinostat -0.017 | silmitasertib 0.002 | [2] -0.015 | entospletinib 0.036

IRAK1 (UniProt P51617)
inactive: [1] -0.073 | silmitasertib 0.205 | [2] -0.014 | entospletinib 0.232
active: vorinostat -0.359

ITSN2 (UniProt Q9NZM3)
inactive: [1] 0.035 | vorinostat -0.033 | silmitasertib 0.038 | [2] -0.007 | entospletinib 0

KDELR1 (UniProt P24390)
inactive: [1] -0.026 | vorinostat -0.005 | silmitasertib 0.093 | [2] -0.03 | entospletinib -0.113

IRF2BPL (UniProt Q9H1B7)
active: vorinostat -0.324
inactive: [1] -0.018 | silmitasertib 0.02 | [2] 0.006 | entospletinib -0.065

KDELR3 (UniProt O43731)
inactive: [1] 0.002 | vorinostat 0.126 | silmitasertib 0.093 | [2] 0.054 | entospletinib -0.296

ITFG1 (UniProt Q8TB96)
inactive: [1] 0.016 | vorinostat 0.098 | silmitasertib -0.043 | [2] -0.015 | entospletinib 0.014

IPO4 isoform 2 (UniProt Q8TEX9)
inactive: [1] -0.005 | vorinostat -0.043 | silmitasertib 0.031 | [2] 0.003 | entospletinib -0.001

KCNK1 (UniProt O00180)
inactive: [1] 0.064 | vorinostat -0.247 | silmitasertib -0.071 | entospletinib -0.06

ISG15 (UniProt P05161)
inactive: [1] -0.076 | vorinostat 0.119 | silmitasertib 0.006 | [2] -0.046 | entospletinib 0.023

ITGB1 (UniProt P05556)
inactive: [1] 0.014 | vorinostat 0.105 | silmitasertib 0.014 | [2] 0.016 | entospletinib 0.009

IWS1 (UniProt Q96ST2)
inactive: [1] 0.008 | vorinostat -0.005 | silmitasertib -0.034 | [2] -0.022 | entospletinib -0.014

ITGB1BP1 (UniProt O14713)
inactive: [1] 0.038 | vorinostat 0.052 | silmitasertib -0.041 | entospletinib -0.18

IP6K1 (UniProt Q92551)
inactive: [1] 0.08 | vorinostat -0.243 | silmitasertib 0.09 | [2] -0.058 | entospletinib -0.068

ITGAE (UniProt P38570)
inactive: [1] 0.143 | vorinostat 0.349 | silmitasertib -0.033 | entospletinib -0.031

KARS1 (UniProt Q15046)
inactive: [1] 0.021 | vorinostat -0.011 | silmitasertib 0.022 | [2] -0.026 | entospletinib 0.006

IRF2BP2 (UniProt Q7Z5L9)
inactive: [1] -0.028 | vorinostat 0.073 | silmitasertib -0.054 | [2] -0.016 | entospletinib 0.034

KATNAL1 (UniProt Q9BW62)
inactive: [1] 0.006 | vorinostat -0.094 | silmitasertib -0.056 | [2] -0.036 | entospletinib 0.048

KDM2A (UniProt Q9Y2K7)
inactive: [1] 0.032 | vorinostat -0.011 | silmitasertib 0.083 | entospletinib -0.046

IQCB1 (UniProt Q15051)
inactive: [1] 0.051 | vorinostat -0.014 | silmitasertib -0.098 | entospletinib 0.095

ITIH4 (UniProt Q14624)
inactive: [1] 0.046 | vorinostat 0.232 | silmitasertib 0.02 | entospletinib 0.044

JTB (UniProt O76095)
inactive: [1] -0.173 | vorinostat 0.12 | silmitasertib 0.081 | [2] -0.033 | entospletinib -0.037

IRF2 (UniProt P14316)
inactive: [1] -0.012 | vorinostat -0.086 | silmitasertib 0.028 | [2] -0.002 | entospletinib 0.015

IQGAP1 (UniProt P46940)
inactive: [1] -0.036 | vorinostat -0.193 | silmitasertib 0.007 | [2] -0.023 | entospletinib 0.014

JAG2 (UniProt Q9Y219)
inactive: vorinostat -0.095 | silmitasertib -0.067 | [2] 0.037 | entospletinib -0.062

KCNH2 (UniProt Q12809)
inactive: vorinostat 0.26 | silmitasertib -0.116 | [2] 0.019

KANSL1 (UniProt Q7Z3B3)
inactive: vorinostat -0.108 | silmitasertib -0.03 | entospletinib 0

KAZN isoform 3 (UniProt Q674X7)
inactive: vorinostat -0.015 | silmitasertib -0.058 | [2] -0.146

Reference: the supplement of paper PMC10849652
